Measurements reported in the supplement of paper PMC10849652.
The other results are listed elsewhere or left out.

By UniProt entry, the sequences of proteins in these tests, tags left out. Where a name states a change or a piece, a line headed by the entry shows the natural chain unless it says otherwise.
UniProt Q9Y3I0: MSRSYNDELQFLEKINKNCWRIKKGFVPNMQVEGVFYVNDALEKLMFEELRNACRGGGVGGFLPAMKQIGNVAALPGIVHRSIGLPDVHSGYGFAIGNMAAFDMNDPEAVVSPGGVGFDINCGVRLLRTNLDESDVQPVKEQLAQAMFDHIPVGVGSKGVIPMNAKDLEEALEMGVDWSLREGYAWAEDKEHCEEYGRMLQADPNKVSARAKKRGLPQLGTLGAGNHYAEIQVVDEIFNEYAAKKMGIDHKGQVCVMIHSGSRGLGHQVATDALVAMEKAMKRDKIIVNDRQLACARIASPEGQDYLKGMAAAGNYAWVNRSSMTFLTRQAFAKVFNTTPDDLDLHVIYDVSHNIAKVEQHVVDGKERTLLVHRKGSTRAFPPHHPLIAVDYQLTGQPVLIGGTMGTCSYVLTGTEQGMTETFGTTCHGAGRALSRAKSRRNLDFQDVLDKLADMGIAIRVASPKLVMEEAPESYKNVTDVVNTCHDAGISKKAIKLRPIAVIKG
UniProt Q15424: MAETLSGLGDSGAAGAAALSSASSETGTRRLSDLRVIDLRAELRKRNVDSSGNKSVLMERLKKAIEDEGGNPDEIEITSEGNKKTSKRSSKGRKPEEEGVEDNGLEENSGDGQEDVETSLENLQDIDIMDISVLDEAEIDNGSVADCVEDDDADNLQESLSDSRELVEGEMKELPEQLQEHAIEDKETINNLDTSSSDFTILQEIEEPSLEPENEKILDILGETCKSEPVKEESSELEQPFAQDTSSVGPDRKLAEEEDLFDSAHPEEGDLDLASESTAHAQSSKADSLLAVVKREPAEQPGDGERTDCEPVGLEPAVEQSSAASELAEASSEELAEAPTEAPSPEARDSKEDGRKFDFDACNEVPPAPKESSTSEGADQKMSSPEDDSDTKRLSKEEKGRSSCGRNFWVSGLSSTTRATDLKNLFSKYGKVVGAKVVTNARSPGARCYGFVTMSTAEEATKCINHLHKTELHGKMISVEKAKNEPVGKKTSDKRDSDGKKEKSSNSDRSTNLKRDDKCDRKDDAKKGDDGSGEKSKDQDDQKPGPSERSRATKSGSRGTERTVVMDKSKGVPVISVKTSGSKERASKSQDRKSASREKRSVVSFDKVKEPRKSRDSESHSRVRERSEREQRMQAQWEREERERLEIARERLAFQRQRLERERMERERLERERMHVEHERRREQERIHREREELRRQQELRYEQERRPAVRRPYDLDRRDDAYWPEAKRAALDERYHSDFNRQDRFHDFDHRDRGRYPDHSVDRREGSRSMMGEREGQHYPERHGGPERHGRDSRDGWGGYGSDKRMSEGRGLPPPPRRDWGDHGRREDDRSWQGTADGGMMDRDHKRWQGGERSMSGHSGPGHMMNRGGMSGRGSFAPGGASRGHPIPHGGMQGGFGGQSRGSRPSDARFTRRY
UniProt P82979: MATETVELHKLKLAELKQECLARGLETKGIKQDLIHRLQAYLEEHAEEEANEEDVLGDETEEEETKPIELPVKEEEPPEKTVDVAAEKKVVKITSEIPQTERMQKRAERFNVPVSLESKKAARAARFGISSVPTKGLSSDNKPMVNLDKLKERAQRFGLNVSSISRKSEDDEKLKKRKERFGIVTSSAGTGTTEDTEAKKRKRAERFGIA
UniProt P21912: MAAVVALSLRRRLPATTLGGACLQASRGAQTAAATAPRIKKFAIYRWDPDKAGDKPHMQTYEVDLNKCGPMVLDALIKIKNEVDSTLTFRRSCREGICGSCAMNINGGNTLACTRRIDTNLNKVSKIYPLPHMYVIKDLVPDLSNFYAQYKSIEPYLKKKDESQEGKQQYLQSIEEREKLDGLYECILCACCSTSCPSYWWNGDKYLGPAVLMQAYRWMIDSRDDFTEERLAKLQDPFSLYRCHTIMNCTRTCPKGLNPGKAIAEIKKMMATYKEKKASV
UniProt O14521: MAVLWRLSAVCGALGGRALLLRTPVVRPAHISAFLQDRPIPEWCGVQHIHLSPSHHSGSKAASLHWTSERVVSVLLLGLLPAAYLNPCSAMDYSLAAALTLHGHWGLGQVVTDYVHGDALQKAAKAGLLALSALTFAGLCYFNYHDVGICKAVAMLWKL
UniProt Q9Y3Z3: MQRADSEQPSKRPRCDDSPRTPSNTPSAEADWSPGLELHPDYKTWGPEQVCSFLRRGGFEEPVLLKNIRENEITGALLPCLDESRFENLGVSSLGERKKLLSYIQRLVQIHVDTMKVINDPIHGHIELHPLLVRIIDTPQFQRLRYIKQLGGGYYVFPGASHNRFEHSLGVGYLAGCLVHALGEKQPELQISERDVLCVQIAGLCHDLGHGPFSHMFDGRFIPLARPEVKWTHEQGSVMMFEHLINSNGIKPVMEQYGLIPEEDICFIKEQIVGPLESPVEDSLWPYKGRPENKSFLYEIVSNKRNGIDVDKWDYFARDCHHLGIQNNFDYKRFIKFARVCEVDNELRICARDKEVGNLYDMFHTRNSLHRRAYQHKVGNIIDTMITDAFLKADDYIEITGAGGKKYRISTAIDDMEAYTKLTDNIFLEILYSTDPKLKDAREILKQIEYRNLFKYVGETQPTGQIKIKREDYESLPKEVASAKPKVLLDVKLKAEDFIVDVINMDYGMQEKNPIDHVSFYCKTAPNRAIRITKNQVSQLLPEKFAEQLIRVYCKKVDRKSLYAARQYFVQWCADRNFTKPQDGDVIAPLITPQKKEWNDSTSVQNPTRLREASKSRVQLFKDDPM
UniProt Q12770: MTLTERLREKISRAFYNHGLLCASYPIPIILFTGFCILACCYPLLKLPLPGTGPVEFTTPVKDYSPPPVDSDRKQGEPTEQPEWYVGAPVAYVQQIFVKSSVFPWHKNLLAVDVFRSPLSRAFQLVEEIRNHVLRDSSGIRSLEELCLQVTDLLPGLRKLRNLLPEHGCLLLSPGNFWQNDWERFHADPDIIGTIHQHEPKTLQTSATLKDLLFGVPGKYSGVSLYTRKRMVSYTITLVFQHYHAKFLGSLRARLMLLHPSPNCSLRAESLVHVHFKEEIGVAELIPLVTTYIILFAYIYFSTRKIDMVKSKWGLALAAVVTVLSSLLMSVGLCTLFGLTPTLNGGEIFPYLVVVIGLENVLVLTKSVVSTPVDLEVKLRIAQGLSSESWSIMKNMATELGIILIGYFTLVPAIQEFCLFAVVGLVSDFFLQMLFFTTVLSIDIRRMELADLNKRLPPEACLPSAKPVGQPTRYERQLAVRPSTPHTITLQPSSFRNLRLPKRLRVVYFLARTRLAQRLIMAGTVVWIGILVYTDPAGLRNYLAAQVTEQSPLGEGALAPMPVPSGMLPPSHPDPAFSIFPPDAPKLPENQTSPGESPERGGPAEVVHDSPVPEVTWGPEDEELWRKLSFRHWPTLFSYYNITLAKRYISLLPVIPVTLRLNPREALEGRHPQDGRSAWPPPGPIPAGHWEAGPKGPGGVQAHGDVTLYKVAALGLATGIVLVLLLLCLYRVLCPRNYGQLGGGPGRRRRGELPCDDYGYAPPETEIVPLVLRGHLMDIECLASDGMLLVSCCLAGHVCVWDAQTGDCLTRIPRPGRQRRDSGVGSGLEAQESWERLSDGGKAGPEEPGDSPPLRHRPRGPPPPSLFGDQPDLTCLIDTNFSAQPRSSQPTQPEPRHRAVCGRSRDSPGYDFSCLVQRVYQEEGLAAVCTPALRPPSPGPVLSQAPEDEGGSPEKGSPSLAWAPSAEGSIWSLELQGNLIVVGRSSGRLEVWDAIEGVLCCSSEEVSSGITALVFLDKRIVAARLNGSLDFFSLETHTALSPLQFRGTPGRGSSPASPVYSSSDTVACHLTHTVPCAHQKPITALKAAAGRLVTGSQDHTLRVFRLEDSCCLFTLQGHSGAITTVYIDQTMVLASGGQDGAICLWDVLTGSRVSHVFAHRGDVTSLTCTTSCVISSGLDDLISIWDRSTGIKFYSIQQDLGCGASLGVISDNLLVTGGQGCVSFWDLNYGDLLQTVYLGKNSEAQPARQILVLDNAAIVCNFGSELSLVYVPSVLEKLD
UniProt Q5VWQ0: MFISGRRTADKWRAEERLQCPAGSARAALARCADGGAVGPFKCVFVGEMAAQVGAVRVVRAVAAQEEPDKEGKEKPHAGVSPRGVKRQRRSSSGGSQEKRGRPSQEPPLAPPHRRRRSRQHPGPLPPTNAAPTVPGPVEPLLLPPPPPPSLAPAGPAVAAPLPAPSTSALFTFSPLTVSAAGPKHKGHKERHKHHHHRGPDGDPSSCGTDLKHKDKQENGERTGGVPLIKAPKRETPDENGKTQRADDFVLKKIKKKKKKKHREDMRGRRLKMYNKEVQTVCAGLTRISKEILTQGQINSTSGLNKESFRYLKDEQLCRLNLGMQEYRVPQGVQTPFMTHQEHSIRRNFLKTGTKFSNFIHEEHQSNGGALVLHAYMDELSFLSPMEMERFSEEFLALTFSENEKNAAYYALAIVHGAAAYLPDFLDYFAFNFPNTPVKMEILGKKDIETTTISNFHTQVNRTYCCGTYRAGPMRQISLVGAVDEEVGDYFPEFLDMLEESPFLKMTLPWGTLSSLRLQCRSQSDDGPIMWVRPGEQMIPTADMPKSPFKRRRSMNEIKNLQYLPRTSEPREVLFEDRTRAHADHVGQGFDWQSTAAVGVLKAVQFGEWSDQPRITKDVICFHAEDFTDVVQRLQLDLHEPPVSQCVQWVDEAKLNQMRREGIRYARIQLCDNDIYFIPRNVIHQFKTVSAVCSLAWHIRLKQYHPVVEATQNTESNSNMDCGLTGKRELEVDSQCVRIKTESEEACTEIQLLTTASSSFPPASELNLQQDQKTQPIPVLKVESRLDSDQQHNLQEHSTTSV
UniProt P67812: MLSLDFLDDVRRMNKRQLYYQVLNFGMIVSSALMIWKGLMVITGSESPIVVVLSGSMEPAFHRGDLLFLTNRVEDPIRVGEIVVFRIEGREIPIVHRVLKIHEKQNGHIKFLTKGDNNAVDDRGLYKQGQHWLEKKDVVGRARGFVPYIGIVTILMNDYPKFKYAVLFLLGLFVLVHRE
UniProt O75845: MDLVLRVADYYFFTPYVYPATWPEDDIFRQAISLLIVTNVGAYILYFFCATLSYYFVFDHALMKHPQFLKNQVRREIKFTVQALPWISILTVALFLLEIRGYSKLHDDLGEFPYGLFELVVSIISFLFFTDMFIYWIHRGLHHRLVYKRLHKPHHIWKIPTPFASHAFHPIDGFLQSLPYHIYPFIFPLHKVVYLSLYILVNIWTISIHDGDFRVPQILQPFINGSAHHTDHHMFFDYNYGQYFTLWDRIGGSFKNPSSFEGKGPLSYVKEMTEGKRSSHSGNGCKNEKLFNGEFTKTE
UniProt P31949: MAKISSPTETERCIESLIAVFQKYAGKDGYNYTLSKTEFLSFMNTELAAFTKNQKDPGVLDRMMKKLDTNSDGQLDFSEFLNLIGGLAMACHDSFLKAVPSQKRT
UniProt Q9BRK5: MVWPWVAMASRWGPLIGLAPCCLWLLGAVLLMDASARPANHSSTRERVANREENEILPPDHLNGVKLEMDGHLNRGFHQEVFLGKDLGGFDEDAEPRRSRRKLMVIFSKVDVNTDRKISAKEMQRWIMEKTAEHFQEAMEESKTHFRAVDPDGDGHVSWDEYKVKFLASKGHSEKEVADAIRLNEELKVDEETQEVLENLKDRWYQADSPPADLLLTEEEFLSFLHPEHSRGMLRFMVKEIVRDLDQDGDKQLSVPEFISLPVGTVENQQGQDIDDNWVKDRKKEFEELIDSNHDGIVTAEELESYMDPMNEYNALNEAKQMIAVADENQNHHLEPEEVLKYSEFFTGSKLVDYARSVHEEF
UniProt Q96KG9: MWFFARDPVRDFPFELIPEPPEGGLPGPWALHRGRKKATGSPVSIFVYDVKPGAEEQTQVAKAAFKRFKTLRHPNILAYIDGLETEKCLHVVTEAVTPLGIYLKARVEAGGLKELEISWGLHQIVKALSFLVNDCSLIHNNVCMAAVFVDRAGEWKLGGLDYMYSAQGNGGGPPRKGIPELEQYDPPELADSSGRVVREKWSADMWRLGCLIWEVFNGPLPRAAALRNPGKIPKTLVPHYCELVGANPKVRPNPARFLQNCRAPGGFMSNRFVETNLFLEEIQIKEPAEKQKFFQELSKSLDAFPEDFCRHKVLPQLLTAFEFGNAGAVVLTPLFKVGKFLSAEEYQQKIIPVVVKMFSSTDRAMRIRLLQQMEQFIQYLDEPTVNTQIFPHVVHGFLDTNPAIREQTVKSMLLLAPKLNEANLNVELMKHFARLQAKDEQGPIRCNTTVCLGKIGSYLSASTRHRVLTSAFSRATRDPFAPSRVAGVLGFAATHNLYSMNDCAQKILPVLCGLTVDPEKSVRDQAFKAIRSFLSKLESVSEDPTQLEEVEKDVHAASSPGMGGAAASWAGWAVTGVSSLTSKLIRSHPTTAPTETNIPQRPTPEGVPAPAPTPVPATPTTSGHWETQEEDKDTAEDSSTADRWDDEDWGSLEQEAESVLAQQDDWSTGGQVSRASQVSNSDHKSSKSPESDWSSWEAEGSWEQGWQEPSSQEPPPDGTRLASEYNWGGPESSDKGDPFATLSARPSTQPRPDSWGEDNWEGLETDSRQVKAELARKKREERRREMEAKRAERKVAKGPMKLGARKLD

Experiments:
Assay in all cases: log2 fold change, soluble protein after heating vs DMSO (PISA); higher = thermal stabilisation; K562 cells, 10 uM, 30 min; active = over 0.2 and 3.5 SD of the protein, either way, in both replicates (recomputed)
[1] = compound: CC[C@@H]1C(=O)N(C)c2cnc(Nc3ccc(C(=O)NC4CCN(C)CC4)cc3OC)nc2N1C1CCCC1
Summary of the method: (§1)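 Values are thermal stability changes relative to control samples and are taken from duplicates. They are stated as log2 fold changes. Before quantification by TMTpro 16plex LC-MS/MS with equalised channel sums, K562 cells at 2×10^6 cells/mL were treated with 10 μM compound for 30 min, heated in aliquots for 3 min across 48°C-58°C, pooled, extracted in PBS with 0.5% NP-40 at 4°C, and centrifuged at 21,000xg for 90 min to give the soluble supernatant.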

volasertib = compound: CC[C@@H]1C(=O)N(C)c2cnc(Nc3ccc(C(=O)N[C@H]4CC[C@H](N5CCN(CC6CC6)CC5)CC4)cc3OC)nc2N1C(C)C [volasertib]
Summary of the method: as §1

[2] = compound: CC[C@H](C)N1C=C(C2=C(C=C(C=C21)C3=CN=C(C=C3)N4CCNCC4)C(=O)NCC5=C(C=C(NC5=O)C)C)C
Summary of the method: as §1

epoxomicin = compound: CC[C@H](C)[C@@H](C(=O)N[C@@H]([C@@H](C)O)C(=O)N[C@@H](CC(C)C)C(=O)[C@]1(CO1)C)NC(=O)[C@H]([C@@H](C)CC)N(C)C(=O)C [epoxomicin]
Summary of the method: as §1

[3] = compound: CCn1c(C(=O)N(C2CC2)C2CC2)cc2c3c(ncn3C)c(Nc3cc(C)n(C)n3)nc21
Summary of the method: as §1

[4] = compound: CCn1cc(-c2ccnc3[nH]c(-c4cccc(CN(C)C)c4)cc23)c(-c2ccc(NC(=O)N(C)C)cc2)n1
Summary of the method: as §1

[5] = compound: CN(C)CC(=O)Nc1ccc2[nH]c(=O)c3ccccc3c2c1
Summary of the method: as §1

rosiglitazone = compound: CN(CCOC1=CC=C(C=C1)C[C@H]2C(=O)NC(=O)S2)C3=CC=CC=N3 (racemic) [rosiglitazone]
Summary of the method: as §1

[6] = compound: CN1C2=C(C3=C1C(=O)N(N=C3)CC4=CC(=CC=C4)N)SC(=C2)S(=O)C
Summary of the method: as §1

[7] = compound: CN1CCC(CNc2ccc3ncc(-c4cccc(OC(F)(F)F)c4)n3n2)CC1
Summary of the method: as §1

Measured: log2 fold change

RTRAF (UniProt Q9Y224)
inactive: [1] 0.113 | volasertib 0.056 | [2] -0.008 | epoxomicin -0.049 | [3] -0.039 | [4] 0.029 | [5] -0.05 | rosiglitazone -0.031 | [6] 0.075 | [7] 0.028

SEC23B (UniProt Q15437)
inactive: [1] -0.005 | volasertib -0.168 | [2] 0.031 | epoxomicin 0.025 | [3] -0.025 | [4] -0.006 | [5] 0.026 | rosiglitazone 0.024 | [6] -0.031 | [7] -0.014

RTCB (UniProt Q9Y3I0)
inactive: [1] -0.142 | volasertib -0.153 | [2] -0.027 | epoxomicin -0.012 | [3] 0.02 | [4] 0.009 | [5] -0.025 | rosiglitazone -0.006 | [6] 0.013 | [7] -0.044

SCRN2 (UniProt Q96FV2)
inactive: [1] 0.059 | volasertib 0.108 | [2] 0.196 | epoxomicin 0.129 | [3] 0.035 | [4] -0.021 | [5] -0.077 | rosiglitazone 0.028 | [6] -0.018 | [7] 0.022

SBNO1 (UniProt A3KN83)
inactive: [1] -0.022 | volasertib -0.115 | [2] 0.015 | epoxomicin 0.056 | [3] -0.007 | [4] -0.003 | [5] -0.008 | rosiglitazone 0.005 | [6] -0.046 | [7] 0.051

SDF2L1 (UniProt Q9HCN8)
inactive: [1] 0.008 | volasertib 0.06 | [2] -0.01 | epoxomicin -0.033 | [3] -0.025 | [4] -0.018 | [5] -0.018 | rosiglitazone 0.01 | [6] -0.004 | [7] 0.037

SEC22B (UniProt O75396)
inactive: [1] -0.097 | volasertib -0.15 | [2] 0.042 | epoxomicin 0.009 | [3] -0.034 | [4] -0.032 | [5] 0.067 | rosiglitazone 0.004 | [6] -0.047 | [7] 0.08

SAFB isoform 3 (UniProt Q15424)
inactive: [1] 0.049 | volasertib 0.2 | [2] -0.083 | epoxomicin -0.093 | [3] -0.036 | [4] 0.239 | [5] -0.029 | rosiglitazone -0.095 | [6] 0.261 | [7] 0.266

RTN3 (UniProt O95197)
inactive: [1] -0.011 | volasertib -0.015 | [2] -0.034 | epoxomicin -0.016 | [3] -0.002 | [4] 0 | [5] 0.005 | rosiglitazone -0.011 | [6] -0.081 | [7] 0.059

RTN4 (UniProt Q9NQC3)
inactive: [1] 0.062 | volasertib 0.006 | [2] -0.045 | epoxomicin 0.013 | [3] 0.023 | [4] 0.015 | [5] 0.021 | rosiglitazone 0.04 | [6] -0.059 | [7] 0.042

Quoted at random: two records from the list.
SAFB isoform 3 (UniProt Q15424)
inactive: [1] 0.049 | volasertib 0.2 | [2] -0.083 | epoxomicin -0.093 | [3] -0.036 | [4] 0.239 | [5] -0.029 | rosiglitazone -0.095 | [6] 0.261 | [7] 0.266

RTN3 (UniProt O95197)
inactive: [1] -0.011 | volasertib -0.015 | [2] -0.034 | epoxomicin -0.016 | [3] -0.002 | [4] 0 | [5] 0.005 | rosiglitazone -0.011 | [6] -0.081 | [7] 0.059

Further records.

SCYL2 (UniProt Q6P3W7)
inactive: [1] -0.021 | volasertib -0.222 | [2] 0.025 | epoxomicin 0.026 | [3] -0.02 | [4] -0.022 | [5] 0.005 | rosiglitazone 0.026 | [6] -0.004 | [7] -0.011

SARNP (UniProt P82979)
inactive: [1] 0.039 | volasertib 0.181 | [2] -0.109 | epoxomicin -0.038 | [3] 0.034 | [4] 0.037 | [5] -0.088 | rosiglitazone -0.068 | [6] 0.001 | [7] -0.008

SCAF4 (UniProt O95104)
inactive: [1] -0.261 | volasertib -0.198 | [2] 0.001 | epoxomicin 0.105 | [3] -0.01 | [4] 0.042 | [5] 0.015 | rosiglitazone 0.014 | [6] -0.127 | [7] -0.149

SDHB (UniProt P21912)
inactive: [1] -0.031 | volasertib 0.072 | [2] 0.036 | epoxomicin -0.021 | [3] 0.029 | [4] -0.032 | [5] 0 | rosiglitazone -0.026 | [6] -0.024 | [7] -0.079

SDHA (UniProt P31040)
inactive: [1] -0.028 | volasertib 0.071 | [2] -0.039 | epoxomicin 0.008 | [3] -0.003 | [4] -0.029 | [5] 0 | rosiglitazone 0.005 | [6] -0.031 | [7] 0.016

SDHD (UniProt O14521)
inactive: [1] 0.025 | volasertib 0.001 | [2] -0.113 | epoxomicin 0.235 | [3] 0.029 | [4] -0.136 | [5] 0.207 | rosiglitazone -0.083 | [6] -0.081 | [7] 0.121

SAP30BP (UniProt Q9UHR5)
inactive: [1] -0.009 | volasertib -0.072 | [2] -0.04 | epoxomicin 0.038 | [3] -0.013 | [4] -0.012 | [5] -0.016 | rosiglitazone 0.002 | [6] -0.03 | [7] -0.043

SAMHD1 (UniProt Q9Y3Z3)
inactive: [1] -0.014 | volasertib -0.007 | [2] 0.018 | epoxomicin 0.003 | [3] -0.046 | [4] -0.015 | [5] -0.003 | rosiglitazone 0 | [6] -0.03 | [7] -0.119

SEC24C (UniProt P53992)
inactive: [1] -0.06 | volasertib -0.185 | [2] 0.069 | epoxomicin 0.062 | [3] -0.019 | [4] -0.064 | [5] 0.073 | rosiglitazone 0.07 | [6] -0.027 | [7] -0.018

SCAP (UniProt Q12770)
inactive: [1] 0.009 | volasertib -0.207 | [2] 0.005 | epoxomicin 0.004 | [3] 0.019 | [4] -0.054 | [5] -0.022 | rosiglitazone 0.046 | [6] 0.016 | [7] 0.067

RSBN1 (UniProt Q5VWQ0)
inactive: [1] 0.185 | volasertib 0.421 | [2] 0.016 | epoxomicin -0.187 | [3] -0.068 | [4] 0.15 | [5] -0.111 | rosiglitazone -0.047 | [6] 0.256 | [7] 0.213

SAP18 isoform 2 (UniProt O00422)
inactive: [1] 0.078 | volasertib 0.056 | [2] -0.021 | epoxomicin -0.133 | [3] 0.039 | [4] 0.08 | [5] -0.14 | rosiglitazone -0.081 | [6] 0.179 | [7] 0.144

SEC11A isoform 3 (UniProt P67812)
inactive: [1] 0.007 | volasertib 0.004 | [2] 0.015 | epoxomicin -0.013 | [3] -0.01 | [4] 0.035 | [5] -0.003 | rosiglitazone 0.032 | [6] -0.015 | [7] 0.007

SC5D (UniProt O75845)
inactive: [1] 0.111 | volasertib 0.098 | [2] -0.034 | epoxomicin 0.026 | [3] 0.048 | [4] 0.019 | [5] -0.032 | rosiglitazone -0.022 | [6] 0.019 | [7] -0.058

SART1 (UniProt O43290)
inactive: [1] 0.114 | volasertib 0.112 | [2] 0.031 | epoxomicin -0.375 | [3] 0.003 | [4] 0.189 | [5] -0.137 | rosiglitazone -0.13 | [6] 0.262 | [7] 0.22

S100A11 (UniProt P31949)
inactive: [1] -0.03 | volasertib 0.048 | [2] 0 | epoxomicin 0.191 | [3] 0.094 | [4] 0.051 | [5] -0.08 | rosiglitazone -0.017 | [6] -0.068 | [7] 0.059

SDF4 (UniProt Q9BRK5)
inactive: [1] -0.007 | volasertib -0.151 | [2] 0.008 | epoxomicin 0.017 | [3] 0.008 | [4] 0.025 | [5] 0.01 | rosiglitazone -0.003 | [6] -0.014 | [7] 0.166

SCP2 (UniProt P22307)
inactive: [1] 0.079 | volasertib -0.043 | [2] -0.011 | epoxomicin 0.006 | [3] 0.002 | [4] -0.012 | [5] 0.023 | rosiglitazone 0 | [6] -0.057 | [7] 0.042

SCYL1 (UniProt Q96KG9)
inactive: [1] -0.079 | volasertib -0.178 | [2] 0.028 | epoxomicin 0.032 | [3] -0.022 | [4] -0.058 | [5] -0.01 | rosiglitazone 0.034 | [6] -0.01 | [7] -0.001
